Results deposited as PubChem BioAssay AID1224826 (NIAID, 2016)
The deposit covers about 17,000 reagents; this is a random part of them. About 1,110 of all reagents (6.6%) count as active. 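Active means lowered or raised reporter signal; replicate intensities are raw and not normalised per plate.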 A reagent listed more than once was tested more than once; the source does not tell the runs apart. Not all columns of the deposit are shown.

- Purpose: 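Knock-downs that raise or lower Tnf reporter signal after endotoxin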 (primary screen)
- Cell system: RAW264.7 G9 macrophages from mouse bearing reporters for p65 (GFP) and the Tnf promoter (mCherry)
- Knock-down reagent: siRNA pool against mouse genes, 100 nM
- Timing: 16 h of LPS stimulation, after 2 days of siRNA transfection
- Challenge: bacterial lipopolysaccharide (Salmonella minnesota R595), 10 ng/ml
- Measured: 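Nuclear mCherry signal of the Tnf promoter reporter measured by imaging after background removal, scaled to each plate median and turned into robust z-scores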
- Reading the numbers: Tnf reporter robust z-score: higher = stronger Tnf promoter reporter signal after LPS
- Hit rule: 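Called active when robust z-score is at most -1.3, matching the median of the Tlr4 knock-down control, or over 3; control wells and wells with under 50 cells never active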
- Calls: active = Tnf reporter clearly lowered or raised; inactive = no clear change in Tnf reporter

Gene	Tnf reporter robust z-score	fewer than 50 cells in well	Outcome
Rpl24 (ribosomal protein L24)	3.51	enough cells in well	active
Cox7b2 (cytochrome c oxidase subunit 7B2)	2.7	enough cells in well	inactive
Simc1 (SUMO-interacting motifs containing 1)		fewer than 50 cells per well; well left out of calls	inactive
Sash3 (SAM and SH3 domain containing 3)	2.04	enough cells in well	inactive
Rrp7a (ribosomal RNA processing 7 homolog A)		fewer than 50 cells per well; well left out of calls	inactive
Pabir3 (PABIR family member 3)	0.53	enough cells in well	inactive
1700029H14Rik (RIKEN cDNA 1700029H14 gene)	2.28	enough cells in well	inactive
Rp2 (retinitis pigmentosa 2 homolog)	2.07	enough cells in well	inactive
Tap2 (transporter 2, ATP-binding cassette, sub-family B (MDR/TAP))	1.34	enough cells in well	inactive
Gcsam (germinal center associated, signaling and motility)	-0.4	enough cells in well	inactive
Gpr119 (G-protein coupled receptor 119)	1.46	enough cells in well	inactive
Gpr119 (G-protein coupled receptor 119)	0.24	enough cells in well	inactive
Srrm3 (serine/arginine repetitive matrix 3)	-0.3	enough cells in well	inactive
Zscan20 (zinc finger and SCAN domains 20)	0.54	enough cells in well	inactive
Mybpc1 (myosin binding protein C, slow-type)	-0.62	enough cells in well	inactive
Eef1g (eukaryotic translation elongation factor 1 gamma)	-0.22	enough cells in well	inactive
Cpa5 (carboxypeptidase A5)	-0.39	enough cells in well	inactive
Zfp768 (zinc finger protein 768)	-0.44	enough cells in well	inactive
Retnlb (resistin like beta)	1.09	enough cells in well	inactive
Prex1	1.31	enough cells in well	inactive
Or4f6 (olfactory receptor family 4 subfamily F member 6)	-0.1	enough cells in well	inactive
Ttc19 (tetratricopeptide repeat domain 19)	-0.09	enough cells in well	inactive
Mpdu1 (mannose-P-dolichol utilization defect 1)	2.56	enough cells in well	inactive
Vgll1 (vestigial like family member 1)	-2.02	enough cells in well	active
Ppcs (phosphopantothenoylcysteine synthetase)	0.67	enough cells in well	inactive
Eif4enif1	0.68	enough cells in well	inactive
Obox2 (oocyte specific homeobox 2)	0.5	enough cells in well	inactive
Snai1 (snail family zinc finger 1)	-0.42	enough cells in well	inactive

Continued (2 carried over from the part before).
Gene	Tnf reporter robust z-score	fewer than 50 cells in well	Outcome
Obox2 (oocyte specific homeobox 2)	0.5	enough cells in well	inactive
Snai1 (snail family zinc finger 1)	-0.42	enough cells in well	inactive
Esrrg (estrogen-related receptor gamma)	-0.05	enough cells in well	inactive
Hmgcl (3-hydroxy-3-methylglutaryl-Coenzyme A lyase)	-0.37	enough cells in well	inactive
Pik3r4 (phosphoinositide-3-kinase regulatory subunit 4)	-0.26	enough cells in well	inactive
Akr1c21 (aldo-keto reductase family 1, member C21)	-0.25	enough cells in well	inactive
Prox1 (prospero homeobox 1)	-0.89	enough cells in well	inactive
Tmem222 (transmembrane protein 222)	0.2	enough cells in well	inactive
Ppp4r1 (protein phosphatase 4, regulatory subunit 1)	-0.9	enough cells in well	inactive
Zfand6 (zinc finger, AN1-type domain 6)		fewer than 50 cells per well; well left out of calls	inactive
Cdr1os (cerebellar degeneration related antigen 1, opposite strand)	-0.53	enough cells in well	inactive
Tdp1 (tyrosyl-DNA phosphodiesterase 1)	2.77	enough cells in well	inactive
Cd5l (CD5 antigen-like)	-0.89	enough cells in well	inactive
Rps2 (ribosomal protein S2)	-0.03	enough cells in well	inactive
Usp10 (ubiquitin specific peptidase 10)	-0.87	enough cells in well	inactive
Slc35g3	-0.44	enough cells in well	inactive
Vmn1r22 (vomeronasal 1 receptor 22)	0.82	enough cells in well	inactive
Or2g1 (olfactory receptor family 2 subfamily G member 1)	-0.99	enough cells in well	inactive
Adra1a (adrenergic receptor, alpha 1a)	-0.96	enough cells in well	inactive
Adra1a (adrenergic receptor, alpha 1a)	-1.36	enough cells in well	active
Abcc10 (ATP-binding cassette, sub-family C member 10)	0.74	enough cells in well	inactive
Mpz (myelin protein zero)	-0.05	enough cells in well	inactive
Tfdp2 (transcription factor Dp 2)	0.11	enough cells in well	inactive
1810065E05Rik (RIKEN cDNA 1810065E05 gene)		fewer than 50 cells per well; well left out of calls	inactive
Ceacam11 (CEA cell adhesion molecule 11)	0.9	enough cells in well	inactive
Tas2r126 (taste receptor, type 2, member 126)	1.6	enough cells in well	inactive
P2rx6 (purinergic receptor P2X, ligand-gated ion channel, 6)	0.41	enough cells in well	inactive
Rps25 (ribosomal protein S25)	-0.46	enough cells in well	inactive
Trmt2b (TRM2 tRNA methyltransferase 2B)		fewer than 50 cells per well; well left out of calls	inactive
Rmp64 (ribonuclease MRP subunit p64)	-0.5	enough cells in well	inactive
Atg3 (autophagy related 3)	-0.39	enough cells in well	inactive
Or14j2 (olfactory receptor family 14 subfamily J member 2)	-0.67	enough cells in well	inactive
Eif2ak1 (eukaryotic translation initiation factor 2 alpha kinase 1)	-0.16	enough cells in well	inactive
Aatk (apoptosis-associated tyrosine kinase)	-0.25	enough cells in well	inactive
Edrf1 (erythroid differentiation regulatory factor 1)	0.5	enough cells in well	inactive
Acsl4 (acyl-CoA synthetase long-chain family member 4)	-0.45	enough cells in well	inactive
Cacybp (calcyclin binding protein)	-0.15	enough cells in well	inactive
2310002L09Rik (RIKEN cDNA 2310002L09 gene)		fewer than 50 cells per well; well left out of calls	inactive
Or6c215 (olfactory receptor family 6 subfamily C member 215)	0.32	enough cells in well	inactive
Pi4kb (phosphatidylinositol 4-kinase beta)		fewer than 50 cells per well; well left out of calls	inactive
Itih3 (inter-alpha trypsin inhibitor, heavy chain 3)	0.38	enough cells in well	inactive
Daglb (diacylglycerol lipase, beta)	0.72	enough cells in well	inactive
Gas2 (growth arrest specific 2)	-0.32	enough cells in well	inactive
Srpx2 (sushi-repeat-containing protein, X-linked 2)	1.11	enough cells in well	inactive
Vmn2r37 (vomeronasal 2, receptor 37)	0.23	enough cells in well	inactive
Wnt6 (WNT family member 6)	0.04	enough cells in well	inactive
Eif4g3 (eukaryotic translation initiation factor 4 gamma, 3)	-1.34	enough cells in well	active
Or11g7 (olfactory receptor family 11 subfamily G member 7)	-0.27	enough cells in well	inactive
Or7g16 (olfactory receptor family 7 subfamily G member 16)	1.99	enough cells in well	inactive
